Results reported in patent US20260345771A1, “THERAPY COMPRISING ANTI-CD19 ANTIBODY AND EZH2 MODULATORS” (Incyte Corporation, priority 2022, published 2026).
At least one compound was matched to its structure with a doubt left.

Assays:
SU-DHL-4 cells = assay: CellTiter-Glo (CTG) viability assay, SU-DHL-4; type: cell-based
Experimental: (§1) A panel of 6 lymphoma cell lines was included in the analysis (5 DLBCL and 1 Burkitt lymphoma). All cell lines were cultured in RPMI 1640 medium (Gibco) supplemented with 10%-20% FCS (Sigma) at 37 °C in 5% CO2.
(§2) To analyze direct cytotoxic and anti-proliferative effects on target cells, cell viability assays were performed using the CellTiter-Glo Kit (Promega), a luminescence assay for determination of viable cell number based on quantification of adenosine triphosphate (ATP) levels. […] Cell densities were adjusted at days 3 and 7 during the assay to avoid overgrowth. The assay was performed in clear 48- and 96-F-well bottom plates in a final volume of 1 mL or 200 μL, respectively, in a cell incubator at 37 °C and 5% CO2. In each experiment, all test conditions were performed in triplicates.
(§3) Cell viability was analyzed according to the manufacturer's protocol using the Tecan Infinite F500 plate reader. The relative viable cell count was calculated from the measured relative luminescence units (RLU) with the following equation: […]
(§4) For graphical illustration and IC50 determination, the mean values of triplicates (viability assay) or duplicates (CD19 expression) of the individual experiments were imported into GraphPad Prism software (version 8). […] IC50 curves were determined applying a non-linear regression curve fit model (sigmoidal dose response, variable slope).

CD19 on SU-DHL-4 cells = assay: CD19 expression on the cell surface by flow cytometry, SU-DHL-4; type: cell-based; details: SU-DHL-4, 7 days of treatment
WSU-DLCL2 tumor = assay: Tumor growth in WSU-DLCL2 tumor bearing CB17-SCID mice; type: in vivo
Experimental: The in vivo study was carried out in WSU-DLCL2 tumor bearing CB17-SCID mice. 4×10^6 WSU-DLCL2 cells (DLBCL cell line) per animal were implanted with matrigel (1:1) s.c. into the left flank of 6-8 weeks old female CB17-SCID mice. On study day 17, when a mean tumor volume of approximately 100 mm^3 was reached, animals were randomly allocated into treatment groups with 8 mice per group and treatment was started. Treatment was applied every day p.o. at 35 mg/kg or 50 mg/kg for Compound 1 (application volume: 10 mL/kg; formulation buffer: 20% propylene glycol, 10% Solutol HS15, 70% phthalate buffer) and biweekly i.v. at 3 mg/kg or 10 mg/kg for tafasitamab (application volume: 5 mL/kg; formulation buffer: PBS). Tumor volume and body weight were measured twice weekly. Mice were sacrificed when reaching a tumor volume >1500 mm^3 or latest at study end on day 69 after tumor cell implantation. Mean tumor growth curves were calculated using GraphPad Prism software (version 8.4.3).
The proof of concept in vivo study was performed in WSU-DLCL2 tumor bearing CB17-SCID mice.

SU-DHL-6 cells = assay: CellTiter-Glo (CTG) viability assay, SU-DHL-6; type: cell-based
Experimental: as §1, §2, §3, §4

[1] = tested on: Tafasitamab's ADCC mode-of-action; assay: Tafasitamab ADCC with effector cells pre-treated with Compound 1; type: cell-based; details: data not shown
CD19 on SU-DHL-6 cells = assay: CD19 expression on the cell surface by flow cytometry, SU-DHL-6; type: cell-based; details: SU-DHL-6, 7 days of treatment

COC1CN([C@H]2CC[C@H]([C@@]3(C)Oc4c(Cl)cc(C(=O)NCc5c(SC)cc(C)[nH]c5=O)c(C)c4O3)CC2)C1 [Compound 1]
inhibited viability compared to tazemetostat (SU-DHL-4 cells): inhibited viability at lower concentrations compared to tazemetostat | CD19 surface level (CD19 on SU-DHL-4 cells): increase of the CD19 surface level | tumor growth inhibition (WSU-DLCL2 tumor; monotherapy 35 mg/kg p.o. QD): did not reveal any tumor growth inhibition | tumor growth inhibition (WSU-DLCL2 tumor; monotherapy 50 mg/kg p.o. QD): did not reveal any tumor growth inhibition | inhibited viability compared to tazemetostat (SU-DHL-6 cells): inhibited viability at lower concentrations compared to tazemetostat | influence of Compound 1 on tafasitamab's ADCC mode-of-action [1]: not negatively influenced | CD19 surface level (CD19 on SU-DHL-6 cells): increase of the CD19 surface level
